Experimental data: US20220025055A1 (Boehringer Ingelheim, published 2022)
These are yes or no findings as the source states them, for the method shown. Some results given as binding are weak or reduced against the parent protein; the word gives no strength.

What was measured:
[1] = biological target: cynomolgus FLT3 (cynomolgus); assay: flow cytometry on FLT3-expressing cells
[2] = biological target: cynomolgus FLT3 (cynomolgus); assay: restated in Example 7; assay not named

B1: NB1113 (antibody, V domains shown)
VH: EVQLLESGGGLVQPGGSLRLSCAPSGFTFSNYGMAWVRQAPGKGLEWVSSIHSGGGDTYYRDSVKGRFTISRDNSKNTLYLQMNSLRAEDTAVYYCARGRTPTGYYFDHWGQGTMVTVSS
VL: DIQMTQSPSSLSASVGDRVTITCRASEGIHSGLAWYQQKPGKVPKLLIYNANSLHSGVPSRFSGSGSGTDFTLTISSLQPEDVATYFCQQYYDYPLTFGQGTKLEIK
notes: Light chain variant (N31S in CDR-L1) of humanized NB1063 (VH1 x VL1); The constant regions are not restated for the humanized antibodies; the parent chimera NB1016 is human IgG4PAA (S228P, F234A, L235A) / human kappa; also called NB11113; N31S light chain variant of NB1063
B1 was tested, and the binding [1] was “binds” and the binding [2] was “binds”.
